At least one compound was matched to its structure with a doubt left.
Biological target: MRGPRX4 (Homo sapiens, UniProt Q96LA9)
Test: Agonism of MRGPRX4 by bilirubin and urobilin samples after 24 h storage
Type: cell-based
Conditions: 24 h at room temperature (dark, room light and blue light); FIG. 3B

The chains behind the UniProt entries cited, without tags or fusion partners. Where a name states a change or a piece, a line headed by the entry shows the natural chain unless it says otherwise.
UniProt Q96LA9: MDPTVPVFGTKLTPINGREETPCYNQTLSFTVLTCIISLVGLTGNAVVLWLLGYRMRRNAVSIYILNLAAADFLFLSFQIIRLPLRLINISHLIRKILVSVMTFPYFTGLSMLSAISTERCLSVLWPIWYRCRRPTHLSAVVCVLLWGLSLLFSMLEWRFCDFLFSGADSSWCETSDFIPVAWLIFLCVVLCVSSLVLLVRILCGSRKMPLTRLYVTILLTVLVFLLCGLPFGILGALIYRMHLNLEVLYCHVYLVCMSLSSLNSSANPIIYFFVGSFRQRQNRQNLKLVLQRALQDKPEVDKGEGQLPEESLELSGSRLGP

## C=CC1=C(C)/C(=C/c2[nH]c(Cc3[nH]c(/C=C4\NC(=O)C(C)=C4C=C)c(C)c3CCC(=O)O)c(CCC(=O)O)c2C)NC1=O [bilirubin]
  agonist activity on MRGPRX4 after storage, relative to the frozen sample: significantly decreased agonist activity
